The supplement of paper PMC10849652
The list shows a part of the results.

Amino acid sequences for entries named in this document (tags omitted). A change or cut given only in a name is not applied to a line headed by its entry.
UniProt P40939: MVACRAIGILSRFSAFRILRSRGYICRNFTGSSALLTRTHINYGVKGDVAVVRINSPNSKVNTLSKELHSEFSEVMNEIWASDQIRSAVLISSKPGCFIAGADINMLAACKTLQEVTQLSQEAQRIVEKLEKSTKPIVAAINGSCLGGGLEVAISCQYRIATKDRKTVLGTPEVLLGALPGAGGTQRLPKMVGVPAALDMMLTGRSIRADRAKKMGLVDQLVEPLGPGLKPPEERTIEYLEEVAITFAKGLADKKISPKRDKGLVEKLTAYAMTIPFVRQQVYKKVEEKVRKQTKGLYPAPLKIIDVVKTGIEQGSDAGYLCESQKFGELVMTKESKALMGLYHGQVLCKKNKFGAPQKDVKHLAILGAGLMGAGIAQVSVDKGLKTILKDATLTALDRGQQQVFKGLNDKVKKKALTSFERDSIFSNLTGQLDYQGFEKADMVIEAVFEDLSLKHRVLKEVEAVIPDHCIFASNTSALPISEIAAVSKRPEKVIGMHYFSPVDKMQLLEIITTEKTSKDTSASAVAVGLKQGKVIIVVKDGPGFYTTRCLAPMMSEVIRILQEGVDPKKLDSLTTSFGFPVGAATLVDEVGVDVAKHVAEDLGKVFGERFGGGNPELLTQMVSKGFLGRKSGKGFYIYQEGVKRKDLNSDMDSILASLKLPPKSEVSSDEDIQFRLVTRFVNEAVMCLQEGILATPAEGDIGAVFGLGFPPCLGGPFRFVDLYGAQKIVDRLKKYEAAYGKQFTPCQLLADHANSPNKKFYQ
UniProt P52655, whole entry, looked up: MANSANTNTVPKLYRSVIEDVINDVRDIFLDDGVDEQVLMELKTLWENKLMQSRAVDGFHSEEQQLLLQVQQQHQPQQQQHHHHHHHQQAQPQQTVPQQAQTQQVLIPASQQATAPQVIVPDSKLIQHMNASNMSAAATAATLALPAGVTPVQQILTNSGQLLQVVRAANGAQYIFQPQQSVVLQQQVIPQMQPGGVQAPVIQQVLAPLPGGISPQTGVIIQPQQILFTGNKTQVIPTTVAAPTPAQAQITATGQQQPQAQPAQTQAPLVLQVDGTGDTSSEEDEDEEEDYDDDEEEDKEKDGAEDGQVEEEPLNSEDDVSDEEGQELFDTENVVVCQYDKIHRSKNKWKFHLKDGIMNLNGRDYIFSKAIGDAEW
UniProt P78417: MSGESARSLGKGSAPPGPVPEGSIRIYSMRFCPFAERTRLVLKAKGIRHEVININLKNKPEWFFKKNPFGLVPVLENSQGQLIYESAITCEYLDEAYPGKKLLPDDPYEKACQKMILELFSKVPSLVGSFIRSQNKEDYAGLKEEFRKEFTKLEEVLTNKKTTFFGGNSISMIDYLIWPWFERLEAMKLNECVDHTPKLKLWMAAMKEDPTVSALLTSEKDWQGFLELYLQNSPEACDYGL
UniProt Q7Z4V5: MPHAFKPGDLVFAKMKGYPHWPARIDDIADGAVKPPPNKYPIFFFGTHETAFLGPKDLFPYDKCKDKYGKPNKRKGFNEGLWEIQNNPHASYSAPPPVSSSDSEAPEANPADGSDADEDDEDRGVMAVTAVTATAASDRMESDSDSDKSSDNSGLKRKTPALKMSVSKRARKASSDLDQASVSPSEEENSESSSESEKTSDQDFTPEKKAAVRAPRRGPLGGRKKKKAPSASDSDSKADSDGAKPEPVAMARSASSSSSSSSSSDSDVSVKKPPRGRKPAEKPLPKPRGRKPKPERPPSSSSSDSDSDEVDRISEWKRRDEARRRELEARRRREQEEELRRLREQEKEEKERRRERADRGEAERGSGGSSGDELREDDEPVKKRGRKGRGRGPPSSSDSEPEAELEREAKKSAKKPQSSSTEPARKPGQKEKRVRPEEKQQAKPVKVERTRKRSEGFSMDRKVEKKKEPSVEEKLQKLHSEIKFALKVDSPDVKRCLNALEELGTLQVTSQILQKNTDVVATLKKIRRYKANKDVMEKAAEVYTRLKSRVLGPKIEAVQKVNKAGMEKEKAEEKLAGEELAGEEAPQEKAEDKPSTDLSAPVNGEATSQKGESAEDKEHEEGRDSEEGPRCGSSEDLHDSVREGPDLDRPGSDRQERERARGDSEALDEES
UniProt P42694: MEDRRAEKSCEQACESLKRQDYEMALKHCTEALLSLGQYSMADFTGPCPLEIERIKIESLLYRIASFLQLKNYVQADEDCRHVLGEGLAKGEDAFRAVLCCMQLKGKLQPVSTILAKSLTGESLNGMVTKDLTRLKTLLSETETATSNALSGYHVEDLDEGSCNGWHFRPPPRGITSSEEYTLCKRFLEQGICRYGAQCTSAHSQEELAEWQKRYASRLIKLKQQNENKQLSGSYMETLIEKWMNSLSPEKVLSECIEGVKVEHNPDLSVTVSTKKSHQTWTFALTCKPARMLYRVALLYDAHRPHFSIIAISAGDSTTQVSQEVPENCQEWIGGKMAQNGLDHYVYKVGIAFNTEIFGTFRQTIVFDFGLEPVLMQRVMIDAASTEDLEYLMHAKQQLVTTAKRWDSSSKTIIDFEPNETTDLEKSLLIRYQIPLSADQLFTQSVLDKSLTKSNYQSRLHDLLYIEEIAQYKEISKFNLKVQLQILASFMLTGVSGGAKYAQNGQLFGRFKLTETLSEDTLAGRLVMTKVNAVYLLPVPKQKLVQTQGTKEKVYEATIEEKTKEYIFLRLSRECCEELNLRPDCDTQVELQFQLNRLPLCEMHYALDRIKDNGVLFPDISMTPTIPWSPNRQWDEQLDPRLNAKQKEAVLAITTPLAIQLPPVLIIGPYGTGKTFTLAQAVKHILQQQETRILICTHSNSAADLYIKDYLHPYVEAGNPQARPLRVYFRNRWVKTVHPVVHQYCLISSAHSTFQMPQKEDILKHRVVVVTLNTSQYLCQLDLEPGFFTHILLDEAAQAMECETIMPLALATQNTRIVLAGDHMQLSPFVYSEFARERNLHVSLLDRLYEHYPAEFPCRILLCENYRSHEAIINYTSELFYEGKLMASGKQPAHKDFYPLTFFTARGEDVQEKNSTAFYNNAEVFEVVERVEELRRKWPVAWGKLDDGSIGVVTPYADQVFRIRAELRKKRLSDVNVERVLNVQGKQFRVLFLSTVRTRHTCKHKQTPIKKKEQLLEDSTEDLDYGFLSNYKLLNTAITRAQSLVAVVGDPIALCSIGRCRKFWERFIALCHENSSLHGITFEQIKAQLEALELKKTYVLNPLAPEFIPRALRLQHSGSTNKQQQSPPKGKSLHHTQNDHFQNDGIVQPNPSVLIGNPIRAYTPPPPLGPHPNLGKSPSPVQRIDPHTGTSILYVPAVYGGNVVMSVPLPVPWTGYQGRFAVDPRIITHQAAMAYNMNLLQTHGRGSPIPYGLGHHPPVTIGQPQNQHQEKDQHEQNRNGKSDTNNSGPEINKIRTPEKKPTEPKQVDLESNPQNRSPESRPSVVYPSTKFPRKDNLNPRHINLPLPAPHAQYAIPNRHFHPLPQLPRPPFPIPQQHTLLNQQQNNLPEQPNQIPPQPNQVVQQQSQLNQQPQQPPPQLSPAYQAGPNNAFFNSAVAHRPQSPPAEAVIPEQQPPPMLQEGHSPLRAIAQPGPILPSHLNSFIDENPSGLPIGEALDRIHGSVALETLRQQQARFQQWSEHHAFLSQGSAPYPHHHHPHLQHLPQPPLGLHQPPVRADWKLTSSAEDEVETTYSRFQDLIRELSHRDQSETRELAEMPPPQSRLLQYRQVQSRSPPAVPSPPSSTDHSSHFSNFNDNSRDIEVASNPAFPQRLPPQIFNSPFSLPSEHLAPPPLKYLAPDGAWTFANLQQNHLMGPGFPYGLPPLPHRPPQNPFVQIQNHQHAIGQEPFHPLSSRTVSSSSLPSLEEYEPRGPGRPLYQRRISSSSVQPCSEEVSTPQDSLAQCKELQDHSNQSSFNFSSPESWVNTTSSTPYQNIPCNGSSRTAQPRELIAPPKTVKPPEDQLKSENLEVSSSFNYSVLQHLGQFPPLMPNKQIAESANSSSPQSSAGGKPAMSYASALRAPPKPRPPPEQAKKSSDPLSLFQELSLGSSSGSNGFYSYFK
UniProt P49841: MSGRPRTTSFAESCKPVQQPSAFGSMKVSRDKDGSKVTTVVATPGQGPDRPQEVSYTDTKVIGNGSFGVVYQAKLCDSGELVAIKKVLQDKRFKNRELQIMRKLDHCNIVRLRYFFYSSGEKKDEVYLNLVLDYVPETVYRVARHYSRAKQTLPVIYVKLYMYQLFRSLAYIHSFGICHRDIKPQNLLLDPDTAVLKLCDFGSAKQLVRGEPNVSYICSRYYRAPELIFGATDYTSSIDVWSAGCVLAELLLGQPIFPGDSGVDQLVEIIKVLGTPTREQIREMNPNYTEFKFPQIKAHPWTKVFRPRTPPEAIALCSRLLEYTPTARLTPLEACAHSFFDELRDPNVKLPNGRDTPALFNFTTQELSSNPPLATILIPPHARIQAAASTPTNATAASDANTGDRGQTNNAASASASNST
UniProt Q9H0R4: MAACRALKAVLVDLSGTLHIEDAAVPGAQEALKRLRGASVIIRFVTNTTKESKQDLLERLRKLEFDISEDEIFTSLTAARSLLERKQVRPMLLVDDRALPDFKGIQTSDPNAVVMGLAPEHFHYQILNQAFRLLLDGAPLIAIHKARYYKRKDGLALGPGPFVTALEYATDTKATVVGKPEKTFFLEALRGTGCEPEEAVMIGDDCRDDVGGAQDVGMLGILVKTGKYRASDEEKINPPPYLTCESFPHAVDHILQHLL
UniProt P02008: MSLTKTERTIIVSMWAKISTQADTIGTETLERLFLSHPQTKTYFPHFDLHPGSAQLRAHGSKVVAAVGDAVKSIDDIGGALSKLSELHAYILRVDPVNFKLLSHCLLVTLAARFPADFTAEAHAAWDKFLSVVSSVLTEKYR
UniProt Q92522: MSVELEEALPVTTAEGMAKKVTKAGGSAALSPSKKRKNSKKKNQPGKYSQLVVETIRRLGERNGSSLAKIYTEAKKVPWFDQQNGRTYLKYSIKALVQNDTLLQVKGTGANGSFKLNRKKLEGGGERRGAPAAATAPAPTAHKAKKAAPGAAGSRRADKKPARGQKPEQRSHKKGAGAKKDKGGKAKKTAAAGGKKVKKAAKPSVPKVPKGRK
UniProt P09211: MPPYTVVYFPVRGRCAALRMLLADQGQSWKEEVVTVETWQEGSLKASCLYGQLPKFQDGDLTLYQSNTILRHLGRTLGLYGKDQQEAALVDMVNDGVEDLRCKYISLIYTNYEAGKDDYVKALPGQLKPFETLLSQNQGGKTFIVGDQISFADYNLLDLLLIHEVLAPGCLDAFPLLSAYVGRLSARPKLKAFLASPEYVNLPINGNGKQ
UniProt P06865: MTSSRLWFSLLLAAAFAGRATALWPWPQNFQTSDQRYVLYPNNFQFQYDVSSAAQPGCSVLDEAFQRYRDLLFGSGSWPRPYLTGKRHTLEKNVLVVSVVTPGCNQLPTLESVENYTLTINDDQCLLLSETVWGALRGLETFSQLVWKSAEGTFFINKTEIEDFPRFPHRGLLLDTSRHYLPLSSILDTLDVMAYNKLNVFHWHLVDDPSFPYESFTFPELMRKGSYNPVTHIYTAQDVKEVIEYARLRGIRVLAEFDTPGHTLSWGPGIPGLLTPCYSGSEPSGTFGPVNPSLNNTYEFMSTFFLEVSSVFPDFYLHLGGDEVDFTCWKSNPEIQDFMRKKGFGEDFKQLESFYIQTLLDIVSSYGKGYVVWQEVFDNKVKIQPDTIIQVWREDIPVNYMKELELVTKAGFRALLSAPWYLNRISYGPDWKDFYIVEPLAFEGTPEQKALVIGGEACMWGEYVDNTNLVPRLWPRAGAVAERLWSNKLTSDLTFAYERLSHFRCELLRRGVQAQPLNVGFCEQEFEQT
UniProt Q93099: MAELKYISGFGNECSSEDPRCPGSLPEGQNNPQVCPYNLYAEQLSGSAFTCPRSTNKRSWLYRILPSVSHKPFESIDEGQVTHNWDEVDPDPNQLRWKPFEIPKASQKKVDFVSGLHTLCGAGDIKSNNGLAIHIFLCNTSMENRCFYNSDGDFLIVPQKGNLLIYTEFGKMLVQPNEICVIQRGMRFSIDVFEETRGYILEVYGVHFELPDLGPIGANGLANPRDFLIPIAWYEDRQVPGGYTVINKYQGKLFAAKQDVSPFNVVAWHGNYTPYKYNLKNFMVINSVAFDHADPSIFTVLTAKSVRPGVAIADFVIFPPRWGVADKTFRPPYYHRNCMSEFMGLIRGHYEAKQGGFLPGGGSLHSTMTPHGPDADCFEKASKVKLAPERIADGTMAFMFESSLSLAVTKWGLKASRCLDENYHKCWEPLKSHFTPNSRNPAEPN
UniProt Q03013: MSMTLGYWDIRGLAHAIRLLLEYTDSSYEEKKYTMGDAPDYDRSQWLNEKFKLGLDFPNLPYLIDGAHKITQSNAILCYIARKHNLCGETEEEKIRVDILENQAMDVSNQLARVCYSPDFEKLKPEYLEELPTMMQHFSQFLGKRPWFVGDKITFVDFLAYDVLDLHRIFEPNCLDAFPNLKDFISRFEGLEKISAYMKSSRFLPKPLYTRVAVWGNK
UniProt P69905, whole entry, looked up: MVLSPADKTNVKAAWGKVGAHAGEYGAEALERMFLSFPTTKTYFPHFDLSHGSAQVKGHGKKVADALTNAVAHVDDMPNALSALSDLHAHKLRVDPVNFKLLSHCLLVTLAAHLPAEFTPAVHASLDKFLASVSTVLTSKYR

Key:
Test in all cases: log2 fold change, soluble protein after heating vs DMSO (PISA); higher = thermal stabilisation; K562 cells, 10 uM, 30 min; active = over 0.2 and 3.5 SD of the protein, either way, in both replicates (recomputed)
[1] = compound: CS(=O)(=O)c1ccc(-c2cnc(N)c(C(=O)Nc3ccccc3)n2)cc1
Outline: (§1)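 Soluble protein was quantified by TMTpro 16plex LC-MS/MS after channel sums were equalised. It was obtained as the supernatant after 21,000xg for 90 min from pooled aliquots of K562 cells (2×10^6 cells/mL, 10 μM compound, 30 min) heated for 3 min across 48°C-58°C and extracted in PBS with 0.5% NP-40 at 4°C. Thermal stability values are relative to control samples and come from duplicates. They are given as log2 fold changes.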

crizotinib = compound: C[C@@H](Oc1cc(-c2cnn(C3CCNCC3)c2)cnc1N)c1c(Cl)ccc(F)c1Cl [crizotinib]
Outline: as §1

[2] = compound: C[C@@H]1COCCN1C2=NC(=NC(=C2)C3(CC3)S(=O)(=O)C)C4=C5C=CNC5=CC=C4
Outline: as §1

[3] = compound: C[C@H](C1=CC=C(C=C1)C(=O)NC2=C3C=CNC3=NC=C2)N
Outline: as §1

gandotinib = compound: Cc1cc(Nc2cc(CN3CCOCC3)c3nc(C)c(Cc4ccc(Cl)cc4F)n3n2)n[nH]1 [gandotinib]
Outline: as §1

[4] = compound: Cc1cc(SCc2sc(-c3ccc(C(F)(F)F)cc3)nc2C)ccc1OCC(=O)O
Outline: as §1

doramapimod = compound: Cc1ccc(-n2nc(C(C)(C)C)cc2NC(=O)Nc2ccc(OCCN3CCOCC3)c3ccccc23)cc1 [doramapimod]
Outline: as §1

ispinesib = compound: Cc1ccc(C(=O)N(CCCN)[C@@H](c2nc3cc(Cl)ccc3c(=O)n2Cc2ccccc2)C(C)C)cc1 [ispinesib]
Outline: as §1

bafetinib = compound: Cc1ccc(NC(=O)c2ccc(CN3CC[C@H](N(C)C)C3)c(C(F)(F)F)c2)cc1Nc1nccc(-c2cncnc2)n1 [bafetinib]
Outline: as §1

[5] = compound: Cc1cccc(CC(=O)N2CCc3c2ccc(-c2cn(C)c4ncnc(N)c24)c3F)n1
Outline: as §1

nilotinib = compound: Cc1cn(-c2cc(NC(=O)c3ccc(C)c(Nc4nccc(-c5cccnc5)n4)c3)cc(C(F)(F)F)c2)cn1 [nilotinib]
Outline: as §1

[6] = compound: Cc1nc(Nc2n[nH]c3c2CN(C(=O)N[C@H](CN(C)C)c2ccccc2)C3(C)C)c2sccc2n1
Outline: as §1

dasatinib = compound: Cc1nc(Nc2ncc(C(=O)Nc3c(C)cccc3Cl)s2)cc(N2CCN(CCO)CC2)n1 [dasatinib]
Outline: as §1

[7] = compound: Cc1ncc(-c2ccnc(Nc3ccc(S(C)(=O)=O)cc3)n2)n1C(C)C
Outline: as §1

[8] = compound: Cn1cc(-c2ccc3c(c2)CCN3C(=O)Cc2cccc(C(F)(F)F)c2)c2c(N)ncnc21
Outline: as §1

[9] = compound: Cn1cc(-c2ccc3nnc(C(F)(F)c4ccc5ncccc5c4)n3n2)cn1
Outline: as §1

tipifarnib = compound: Cn1cncc1[C@@](N)(c1ccc(Cl)cc1)c1ccc2c(c1)c(-c1cccc(Cl)c1)cc(=O)n2C [tipifarnib]
Outline: as §1

mubritinib = compound: FC(F)(F)c1ccc(/C=C/c2nc(COc3ccc(CCCCn4ccnn4)cc3)co2)cc1 [mubritinib]
Outline: as §1

duvelisib = compound: C[C@H](Nc1ncnc2nc[nH]c12)c1cc2cccc(Cl)c2c(=O)n1-c1ccccc1 [duvelisib]
Outline: as §1

tozasertib = compound: Cc1cc(Nc2cc(N3CCN(C)CC3)nc(Sc3ccc(NC(=O)C4CC4)cc3)n2)n[nH]1 [tozasertib]
Outline: as §1

Measured: log2 fold change

HADHA (UniProt P40939)
inactive: [1] -0.058 | crizotinib 0.079 | [2] 0.068 | [3] -0.017 | gandotinib 0.086 | [4] 0.154 | doramapimod 0.176 | ispinesib 0.171 | bafetinib 0.293 | [5] 0.097 | nilotinib 0.049 | [6] -0.078 | dasatinib -0.05 | [7] 0.036 | [8] 0.203 | [9] 0.069 | tipifarnib -0.304
active: mubritinib 0.685

GTF2A1 (UniProt P52655)
inactive: [1] 0.061 | crizotinib 0.074 | [2] 0.061 | [3] -0.065 | gandotinib 0.07 | [4] -0.066 | doramapimod -0.107 | ispinesib 0.24 | bafetinib 0 | [5] -0.047 | nilotinib 0.111 | [6] -0.047 | dasatinib 0.068 | [7] -0.078 | [8] 0.081 | [9] 0.349 | tipifarnib 0.144 | mubritinib -0.008

GSTO1 (UniProt P78417)
inactive: [1] 0.047 | crizotinib 0 | [2] 0.013 | [3] -0.072 | gandotinib -0.017 | [4] 0 | doramapimod -0.02 | ispinesib 0.036 | bafetinib 0.021 | [5] 0.148 | nilotinib -0.009 | [6] -0.021 | dasatinib -0.007 | [7] -0.009 | [8] 0.019 | [9] -0.004 | tipifarnib -0.014 | mubritinib 0.018

HDGFL2 (UniProt Q7Z4V5)
inactive: [1] 0.086 | crizotinib -0.007 | [2] -0.052 | [3] -0.04 | gandotinib 0.005 | [4] -0.061 | doramapimod -0.045 | ispinesib 0.019 | bafetinib -0.017 | [5] -0.013 | nilotinib -0.007 | [6] -0.061 | dasatinib 0.035 | [7] -0.029 | [8] -0.018 | [9] -0.048 | tipifarnib 0.032 | mubritinib 0.098

HELZ (UniProt P42694)
inactive: [1] -0.012 | crizotinib 0.375 | [3] 0.019 | duvelisib -0.125 | gandotinib -0.123 | [4] 0.048 | doramapimod -0.105 | ispinesib -0.118 | bafetinib 0.147 | [5] -0.089 | nilotinib 0.076 | [6] 0.003 | dasatinib 0.02 | [7] -0.135 | [8] -0.103 | [9] -0.191 | tipifarnib -0.033 | mubritinib -0.114

HEXB (UniProt P07686)
active: crizotinib -0.377 | bafetinib -0.468
inactive: [1] -0.009 | [2] 0.058 | [3] -0.021 | gandotinib -0.013 | [4] -0.031 | doramapimod -0.007 | ispinesib -0.128 | [5] -0.04 | nilotinib 0.002 | [6] 0.032 | dasatinib 0.039 | [7] -0.024 | [8] 0.021 | [9] 0.01 | tipifarnib 0.026 | mubritinib 0.008

GSK3B isoform 2 (UniProt P49841)
inactive: [1] 0.09 | crizotinib -0.053 | [2] -0.032 | [3] -0.143 | gandotinib -0.108 | [4] 0.015 | doramapimod -0.013 | ispinesib 0.059 | bafetinib -0.003 | [5] 0.055 | nilotinib -0.04 | [6] 0.094 | dasatinib -0.115 | [7] 0.124 | [8] 0.055 | [9] -0.013 | tipifarnib -0.024 | mubritinib -0.008

HDHD2 (UniProt Q9H0R4)
inactive: [1] -0.11 | crizotinib -0.031 | [2] -0.01 | [3] 0.001 | gandotinib 0 | [4] -0.023 | doramapimod -0.081 | ispinesib 0.004 | bafetinib 0.068 | [5] 0.018 | nilotinib 0.024 | [6] -0.04 | dasatinib 0.042 | [7] 0.006 | [8] 0.019 | [9] 0.028 | tipifarnib -0.011 | mubritinib 0.045

HDAC7 isoform 5 (UniProt Q8WUI4)
inactive: [1] -0.027 | crizotinib -0.013 | [2] 0.016 | gandotinib 0.011 | [4] 0.028 | doramapimod -0.018 | ispinesib 0.185 | bafetinib -0.023 | [5] 0.033 | nilotinib 0.024 | dasatinib -0.134 | [7] -0.161 | [8] 0.026 | [9] -0.021 | tipifarnib 0.093 | mubritinib -0.006
active: [3] -0.281 | [6] -0.378

HBZ (UniProt P02008)
inactive: [1] 0.017 | crizotinib 0.09 | [2] 0.174 | [3] -0.067 | gandotinib 0.084 | [4] 0.014 | doramapimod -0.005 | ispinesib 0.21 | bafetinib -0.013 | [5] 0.037 | nilotinib 0.018 | [6] 0.011 | dasatinib 0.073 | [7] -0.008 | [8] 0.137 | [9] 0.282 | tipifarnib -0.183 | mubritinib 0.049

H1FX (UniProt Q92522)
inactive: [1] -0.175 | crizotinib 0.091 | [2] -0.524 | [3] 0.432 | gandotinib 0.13 | [4] 0.021 | doramapimod 0.188 | ispinesib -0.016 | bafetinib 0.248 | [5] 0.048 | nilotinib 0.035 | [6] 0.079 | dasatinib 0.043 | [7] 0.039 | [8] -0.189 | [9] -0.113 | tipifarnib 0.126 | mubritinib -0.138

GSTP1 (UniProt P09211)
inactive: [1] 0.023 | crizotinib 0.038 | [2] 0.033 | [3] -0.067 | gandotinib -0.005 | [4] 0 | doramapimod -0.019 | ispinesib 0.058 | bafetinib -0.061 | [5] -0.021 | nilotinib -0.018 | [6] -0.017 | dasatinib -0.014 | [7] 0.007 | [8] 0.032 | [9] 0.038 | tipifarnib -0.007 | mubritinib 0.038

HEXA (UniProt P06865)
active: crizotinib -0.785 | bafetinib -0.491
inactive: [1] 0.016 | [2] 0.02 | [3] -0.015 | gandotinib 0.015 | [4] -0.02 | doramapimod -0.016 | ispinesib -0.124 | [5] -0.023 | nilotinib -0.001 | [6] 0.017 | dasatinib 0.016 | [7] -0.036 | [8] -0.003 | [9] 0.006 | tipifarnib 0.044 | mubritinib 0.023

HGD (UniProt Q93099)
inactive: [1] 0.074 | [2] 0.015

Taken from the listing (5 entries):
HBZ (UniProt P02008)
inactive: [1] 0.017 | crizotinib 0.09 | [2] 0.174 | [3] -0.067 | gandotinib 0.084 | [4] 0.014 | doramapimod -0.005 | ispinesib 0.21 | bafetinib -0.013 | [5] 0.037 | nilotinib 0.018 | [6] 0.011 | dasatinib 0.073 | [7] -0.008 | [8] 0.137 | [9] 0.282 | tipifarnib -0.183 | mubritinib 0.049

H1FX (UniProt Q92522)
inactive: [1] -0.175 | crizotinib 0.091 | [2] -0.524 | [3] 0.432 | gandotinib 0.13 | [4] 0.021 | doramapimod 0.188 | ispinesib -0.016 | bafetinib 0.248 | [5] 0.048 | nilotinib 0.035 | [6] 0.079 | dasatinib 0.043 | [7] 0.039 | [8] -0.189 | [9] -0.113 | tipifarnib 0.126 | mubritinib -0.138

GSTP1 (UniProt P09211)
inactive: [1] 0.023 | crizotinib 0.038 | [2] 0.033 | [3] -0.067 | gandotinib -0.005 | [4] 0 | doramapimod -0.019 | ispinesib 0.058 | bafetinib -0.061 | [5] -0.021 | nilotinib -0.018 | [6] -0.017 | dasatinib -0.014 | [7] 0.007 | [8] 0.032 | [9] 0.038 | tipifarnib -0.007 | mubritinib 0.038

HEXA (UniProt P06865)
active: crizotinib -0.785 | bafetinib -0.491
inactive: [1] 0.016 | [2] 0.02 | [3] -0.015 | gandotinib 0.015 | [4] -0.02 | doramapimod -0.016 | ispinesib -0.124 | [5] -0.023 | nilotinib -0.001 | [6] 0.017 | dasatinib 0.016 | [7] -0.036 | [8] -0.003 | [9] 0.006 | tipifarnib 0.044 | mubritinib 0.023

HGD (UniProt Q93099)
inactive: [1] 0.074 | [2] 0.015

The results go on.

HAUS5 (UniProt O94927)
inactive: [1] -0.144 | crizotinib -0.118 | duvelisib -0.039 | gandotinib -0.081 | tozasertib 0.059 | [4] 0.105 | doramapimod 0.243 | ispinesib -0.138 | [5] 0.076 | nilotinib -0.09 | [6] -0.165 | dasatinib -0.272 | [7] 0.008 | [9] -0.115 | tipifarnib 0.125 | mubritinib -0.01

GSTM4 (UniProt Q03013)
inactive: [1] -0.181 | crizotinib -0.006 | [2] 0.004 | [3] 0.054 | gandotinib -0.028 | [4] 0.035 | doramapimod -0.037 | ispinesib -0.012 | bafetinib 0.021 | [5] 0.002 | nilotinib 0.001 | [6] 0.088 | dasatinib 0 | [7] -0.018 | [8] 0.026 | [9] -0.141 | tipifarnib -0.023 | mubritinib -0.08

HBA1 (UniProt P69905)
inactive: [1] 0.009 | crizotinib 0.097 | [2] 0.213 | [3] -0.058 | gandotinib 0.025 | [4] 0.004 | doramapimod 0 | ispinesib 0.24 | bafetinib -0.013 | [5] 0.138 | nilotinib 0.029 | [6] 0.017 | dasatinib 0.044 | [7] 0.01 | [8] 0.156 | tipifarnib -0.084 | mubritinib 0.024
active: [9] 0.345
